Assay results: patent US4431742A, “Radioreceptor assay for benzodiazepines in saliva” (The United States of America as represented by the …, priority 1981, dated 1984)

test system: benzodiazepine receptor (fresh rat frontal cortex); test: lower limit of sensitivity of the saliva radioreceptor assay; format: binding; conditions: 100λ of two-fold diluted saliva

SMILES	lower limit of sensitivity (7% inhibition of specific binding) [ng/mL]
CNC1=Nc2ccc(Cl)cc2C(c2ccccc2)=[N+]([O-])C1 [chlordiazepoxide]	1.50
CN1C(=O)CN=C(c2ccccc2)c2cc(Cl)ccc21 [diazepam]	0.14
O=C1CN=C(c2ccccc2)c2cc([N+](=O)[O-])ccc2N1 [nitrazepam]	0.28
O=C1Nc2ccc(Cl)cc2C(c2ccccc2)=NC1O (stereo not shown) [oxazepam]	2.87
